# This is one part of the list.
# B1: pilr alpha (protein)
# chain: MLYGVTQPKHLSASMGGSVEIPFSFYYPWELATAPDVRISWRRGHFHRQSFYSTRPPSIHKDYVNRLFLNWTEGQKSGFLRISNLQKQDQSVYFCRVELDTRSSGRQQWQSIEGTKLSIT
# Experiments:
# Assay in all cases: glycan array binding signal (z-score within array); higher = stronger binding
# Conditions in all cases: glycan notation: IUPAC condensed, linker removed
# [1] = molecular target: Fuc(a1-3)GlcNAc
# Method in brief: (§1)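 Glycan array binding is given as a within-array Z-score, which can be read as non-binding when negative. The arrays, 3228 of them, came from the Consortium for Functional Glycomics database and were retained only where the protein sequence was available. Z-scores were averaged across arrays of the same protein sequence at different concentrations or buffers and across linkers.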
# [2] = molecular target: Fuc(a1-3)[Gal(b1-4)]Glc6S
# Method in brief: as §1
# [3] = molecular target: Fuc(a1-3)[Gal(b1-4)]GlcNAc
# Method in brief: as §1
# [4] = molecular target: Fuc(a1-3)[Gal(b1-4)]GlcNAc(b1-2)Man
# Method in brief: as §1
# [5] = molecular target: Fuc(a1-3)[Gal(b1-4)]GlcNAc(b1-2)Man(a1-3)[Fuc(a1-3)[Gal(b1-4)]GlcNAc(b1-2)Man(a1-6)]Man(b1-4)GlcNAc(b1-4)GlcNAc
# Method in brief: as §1
# [6] = molecular target: Fuc(a1-3)[Gal(b1-4)]GlcNAc(b1-2)Man(a1-3)[Fuc(a1-3)[Gal(b1-4)]GlcNAc(b1-2)Man(a1-6)]Man(b1-4)GlcNAc(b1-4)[Fuc(a1-6)]GlcNAc
# Method in brief: as §1
# [7] = molecular target: Fuc(a1-3)[Gal(b1-4)]GlcNAc(b1-3)Gal(b1-3)[Fuc(a1-4)]GlcNAc
# Method in brief: as §1
# [8] = molecular target: Fuc(a1-3)[Gal(b1-4)]GlcNAc(b1-3)Gal(b1-4)[Fuc(a1-3)]GlcNAc
# Method in brief: as §1
# [9] = molecular target: Fuc(a1-3)[Gal(b1-4)]GlcNAc(b1-3)Gal(b1-4)[Fuc(a1-3)]GlcNAc(b1-3)Gal(b1-4)[Fuc(a1-3)]GlcNAc
# Method in brief: as §1
# [10] = molecular target: Fuc(a1-3)[Gal(b1-4)]GlcNAc(b1-3)GalNAc
# Method in brief: as §1
# [11] = molecular target: Fuc(a1-3)[Gal(b1-4)]GlcNAc(b1-6)GalNAc
# Method in brief: as §1
# [12] = molecular target: Fuc(a1-3)[Gal(b1-4)]GlcNAc(b1-6)[Gal(b1-3)GlcNAc(b1-3)]Gal(b1-4)Glc
# Method in brief: as §1
# [13] = molecular target: Fuc(a1-3)[Gal(b1-4)]GlcNAc6S
# Method in brief: as §1
# [14] = molecular target: Fuc(a1-3)[Gal3S(b1-4)]Glc
# Method in brief: as §1
# [15] = molecular target: Fuc(a1-3)[Gal3S(b1-4)]GlcNAc
# Method in brief: as §1
# [16] = molecular target: Fuc(a1-3)[Gal3S(b1-4)]GlcNAc6S
# Method in brief: as §1
# [17] = molecular target: Fuc(a1-3)[GalNAc(b1-4)]GlcNAc
# Method in brief: as §1
# [18] = molecular target: Fuc(a1-3)[GalNAc(b1-4)]GlcNAc6S
# Method in brief: as §1
# [19] = molecular target: Fuc(a1-4)GlcNAc
# Method in brief: as §1
# [20] = molecular target: Fuc(b1-3)GlcNAc
# Method in brief: as §1
# [21] = molecular target: Gal(a1-2)Gal
# Method in brief: as §1
# [22] = molecular target: Gal(a1-3)Gal
# Method in brief: as §1
# [23] = molecular target: Gal(a1-3)Gal(b1-3)GlcNAc
# Method in brief: as §1
# [24] = molecular target: Gal(a1-3)Gal(b1-3)GlcNAc(b1-2)Man
# Method in brief: as §1
# [25] = molecular target: Gal(a1-3)Gal(b1-3)GlcNAc(b1-2)Man(a1-3)[Gal(a1-3)Gal(b1-3)GlcNAc(b1-2)Man(a1-6)]Man(b1-4)GlcNAc(b1-4)GlcNAc
# Method in brief: as §1
# [26] = molecular target: Gal(a1-3)Gal(b1-3)GlcNAc(b1-3)GalNAc
# Method in brief: as §1
# [27] = molecular target: Gal(a1-3)Gal(b1-3)GlcNAc(b1-6)GalNAc
# Method in brief: as §1
# [28] = molecular target: Gal(a1-3)Gal(b1-3)[Fuc(a1-4)]GlcNAc(b1-2)Man(a1-3)[Gal(a1-3)Gal(b1-3)[Fuc(a1-4)]GlcNAc(b1-2)Man(a1-6)]Man(b1-4)GlcNAc(b1-4)GlcNAc
# Method in brief: as §1
# [29] = molecular target: Gal(a1-3)Gal(b1-4)Glc
# Method in brief: as §1
# [30] = molecular target: Gal(a1-3)Gal(b1-4)GlcNAc
# Method in brief: as §1
# [31] = molecular target: Gal(a1-3)Gal(b1-4)GlcNAc(b1-2)Man
# Method in brief: as §1
# [32] = molecular target: Gal(a1-3)Gal(b1-4)GlcNAc(b1-2)Man(a1-3)[Gal(a1-3)Gal(b1-4)GlcNAc(b1-2)Man(a1-6)]Man(b1-4)GlcNAc(b1-4)GlcNAc
# Method in brief: as §1
# [33] = molecular target: Gal(a1-3)Gal(b1-4)GlcNAc(b1-3)GalNAc
# Method in brief: as §1
# [34] = molecular target: Gal(a1-3)Gal(b1-4)GlcNAc(b1-6)GalNAc
# Method in brief: as §1
# [35] = molecular target: Gal(a1-3)Gal(b1-4)[Fuc(a1-3)]GlcNAc
# Method in brief: as §1
# [36] = molecular target: Gal(a1-3)Gal(b1-4)[Fuc(a1-3)]GlcNAc(b1-2)Man(a1-3)[Gal(a1-3)Gal(b1-4)[Fuc(a1-3)]GlcNAc(b1-2)Man(a1-6)]Man(b1-4)GlcNAc(b1-4)GlcNAc
# Method in brief: as §1
# [37] = molecular target: Gal(a1-3)GalNAc
# Method in brief: as §1
# [38] = molecular target: Gal(a1-3)[Gal(a1-4)]Gal(b1-4)GlcNAc
# Method in brief: as §1
# [39] = molecular target: Gal(a1-4)Gal(b1-3)GlcNAc(b1-2)Man(a1-3)[Gal(a1-4)Gal(b1-3)GlcNAc(b1-2)Man(a1-6)]Man(b1-4)GlcNAc(b1-4)GlcNAc
# Method in brief: as §1
# [40] = molecular target: Gal(a1-4)Gal(b1-4)Glc
# Method in brief: as §1
# [41] = molecular target: Gal(a1-4)Gal(b1-4)GlcNAc
# Method in brief: as §1
# [42] = molecular target: Gal(a1-4)Gal(b1-4)GlcNAc(b1-2)Man(a1-3)[Gal(a1-4)Gal(b1-4)GlcNAc(b1-2)Man(a1-6)]Man(b1-4)GlcNAc(b1-4)GlcNAc
# Method in brief: as §1
# [43] = molecular target: Gal(a1-4)Gal(b1-4)GlcNAc(b1-3)Gal(b1-4)Glc
# Method in brief: as §1
# [44] = molecular target: Gal(a1-4)GlcNAc
# Method in brief: as §1
# [45] = molecular target: Gal(a1-6)Glc
# Method in brief: as §1
binder,measurement,setting,value
B1,glycan array binding signal (z-score),[1],-1.01
same,glycan array binding signal (z-score),[2],0.954
same,glycan array binding signal (z-score),[3],-0.294
same,glycan array binding signal (z-score),[4],-0.631
same,glycan array binding signal (z-score),[5],-1.03
same,glycan array binding signal (z-score),[6],0.696
same,glycan array binding signal (z-score),[7],-0.223
same,glycan array binding signal (z-score),[8],-0.65
same,glycan array binding signal (z-score),[9],-0.258
same,glycan array binding signal (z-score),[10],0.595
same,glycan array binding signal (z-score),[11],-0.089
same,glycan array binding signal (z-score),[12],-0.127
same,glycan array binding signal (z-score),[13],1.31
same,glycan array binding signal (z-score),[14],-0.433
same,glycan array binding signal (z-score),[15],-0.584
same,glycan array binding signal (z-score),[16],-0.406
same,glycan array binding signal (z-score),[17],-0.247
same,glycan array binding signal (z-score),[18],-1.02
same,glycan array binding signal (z-score),[19],-0.406
same,glycan array binding signal (z-score),[20],-0.131
same,glycan array binding signal (z-score),[21],-0.066
same,glycan array binding signal (z-score),[22],0.272
same,glycan array binding signal (z-score),[23],0.373
same,glycan array binding signal (z-score),[24],-0.645
same,glycan array binding signal (z-score),[25],-0.319
same,glycan array binding signal (z-score),[26],-0.42
same,glycan array binding signal (z-score),[27],-0.511
same,glycan array binding signal (z-score),[28],-0.615
same,glycan array binding signal (z-score),[29],-0.172
same,glycan array binding signal (z-score),[30],-0.25
same,glycan array binding signal (z-score),[31],-0.207
same,glycan array binding signal (z-score),[32],0.755
same,glycan array binding signal (z-score),[33],-0.786
same,glycan array binding signal (z-score),[34],0.726
same,glycan array binding signal (z-score),[35],-0.631
same,glycan array binding signal (z-score),[36],-0.503
same,glycan array binding signal (z-score),[37],2.27
same,glycan array binding signal (z-score),[38],7.86
same,glycan array binding signal (z-score),[39],-1.03
same,glycan array binding signal (z-score),[40],1.77
same,glycan array binding signal (z-score),[41],0.354
same,glycan array binding signal (z-score),[42],0.423
same,glycan array binding signal (z-score),[43],-0.604
same,glycan array binding signal (z-score),[44],-0.523
same,glycan array binding signal (z-score),[45],0.018
